Earlier results in US20070104787A1, “Carboxyalkyl cellulose esters for sustained delivery of pharmaceutically active substances” (priority 2005, published 2007).
Read-outs that look alike come from different tables or passages of the source.

Settings: cited from earlier work

CC(C)Cc1ccc(C(C)C(=O)O)cc1 (centres unmarked) [ibuprofen]
solubility of ibuprofen (pH 1.2): highly insoluble | solubility of ibuprofen (pH 6.8): very soluble
